Data on 3 substances can be found in article PMC13091039.

Sequences of proteins named here, by UniProt entry; tags and fusion partners are left off.
UniProt P49407: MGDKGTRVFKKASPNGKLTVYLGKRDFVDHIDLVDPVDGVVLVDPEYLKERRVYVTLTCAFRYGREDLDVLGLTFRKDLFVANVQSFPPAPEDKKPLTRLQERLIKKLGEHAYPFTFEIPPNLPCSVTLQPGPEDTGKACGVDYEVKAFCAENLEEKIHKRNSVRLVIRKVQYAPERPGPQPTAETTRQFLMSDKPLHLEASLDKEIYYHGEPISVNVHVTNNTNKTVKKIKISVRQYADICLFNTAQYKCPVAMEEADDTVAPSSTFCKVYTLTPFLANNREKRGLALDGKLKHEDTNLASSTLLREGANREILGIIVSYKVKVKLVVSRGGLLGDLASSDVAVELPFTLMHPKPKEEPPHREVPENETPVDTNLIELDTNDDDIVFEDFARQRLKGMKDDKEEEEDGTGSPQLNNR

The target of assay [1] is T1, thrombin-activated protease-activated receptor-1 fused to yellow fluorescent protein (PAR1-YFP WT after cleavage at R41) (human).
T1 sequence: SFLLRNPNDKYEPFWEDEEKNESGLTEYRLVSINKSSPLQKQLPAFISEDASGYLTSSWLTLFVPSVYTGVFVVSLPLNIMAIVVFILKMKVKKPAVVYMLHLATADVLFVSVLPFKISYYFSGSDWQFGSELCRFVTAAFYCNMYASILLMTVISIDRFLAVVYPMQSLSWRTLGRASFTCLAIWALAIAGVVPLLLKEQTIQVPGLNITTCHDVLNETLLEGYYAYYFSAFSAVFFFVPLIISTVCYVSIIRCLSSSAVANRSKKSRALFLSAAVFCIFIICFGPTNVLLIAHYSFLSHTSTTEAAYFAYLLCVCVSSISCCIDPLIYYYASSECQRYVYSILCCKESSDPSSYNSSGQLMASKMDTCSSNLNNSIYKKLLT
Briefly: FRET or BRET; HEK293 βarr1,2 KO cells expressing PAR1-YFP, EPCR-Halo and 100 ng Nluc-βarr2 or Nluc-βarr1 (WT or dFLR); 1 nM thrombin or 20 nM APC, 37°C. Background: BRET reads energy transfer from a luciferase to a nearby fluorophore.

For assay [2], the target named is T2, APC-activated protease-activated receptor-1 fused to yellow fluorescent protein (PAR1-YFP WT after cleavage at R46) (human).
T2 sequence: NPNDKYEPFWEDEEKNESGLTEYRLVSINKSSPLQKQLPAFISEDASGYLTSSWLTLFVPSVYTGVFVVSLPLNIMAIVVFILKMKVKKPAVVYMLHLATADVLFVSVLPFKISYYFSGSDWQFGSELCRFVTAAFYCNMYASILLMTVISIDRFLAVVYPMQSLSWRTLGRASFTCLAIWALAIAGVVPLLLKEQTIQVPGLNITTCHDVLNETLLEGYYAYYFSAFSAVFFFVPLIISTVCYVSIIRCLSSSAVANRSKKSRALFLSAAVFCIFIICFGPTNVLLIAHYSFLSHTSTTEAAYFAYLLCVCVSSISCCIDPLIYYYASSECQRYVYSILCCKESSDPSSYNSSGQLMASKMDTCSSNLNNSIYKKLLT
The assay is described as above.

Assay [3] has the same target. Briefly: condition: only GRK2,3,5,6 KO cells with the GRK5 4A mutant; FRET or BRET; HEK293 GRK2,3,5,6 KO cells expressing the membrane-localisation-deficient GRK5 4A mutant (also at varied levels), with PAR1-YFP, EPCR-Halo and Rluc-βarr2; 1 nM thrombin or 20 nM APC, 37°C.
Assay [4] shares this target. Description: FRET or BRET; as a1, HEK293 cells without EPCR co-expression, stimulated with APC.
Assay [5] deals with T1, thrombin-activated protease-activated receptor-1 fused to yellow fluorescent protein (PAR1-YFP WT after cleavage at R41) (human). Briefly: FRET or BRET; HEK293 GRK2,3,5,6 KO cells with pcDNA3 instead of GRK5, with PAR1-YFP, EPCR-Halo and Rluc-βarr2; 1 nM thrombin or 20 nM APC, 37°C.
For assay [6], the target named is T2, APC-activated protease-activated receptor-1 fused to yellow fluorescent protein (PAR1-YFP WT after cleavage at R46) (human). Description: condition: only GRK2,3,5,6 KO cells without GRK5 (pcDNA3); FRET or BRET; HEK293 GRK2,3,5,6 KO cells with pcDNA3 instead of GRK5, with PAR1-YFP, EPCR-Halo and Rluc-βarr2; 1 nM thrombin or 20 nM APC, 37°C.
For assay [7] the target is unchanged. Briefly: FRET or BRET; as a1, cells pretreated with 10 μM vorapaxar for 30 min.
For assay [8], the target named is T1, thrombin-activated protease-activated receptor-1 fused to yellow fluorescent protein (PAR1-YFP WT after cleavage at R41) (human). Described as above.
In assay [9] the target is T2, APC-activated protease-activated receptor-1 fused to yellow fluorescent protein (PAR1-YFP WT after cleavage at R46) (human). Briefly: FRET or BRET; HEK293 GRK2,3,5,6 KO cells re-expressing GRK5 WT, with PAR1-YFP (WT or mutant), EPCR-Halo and Rluc-βarr2; 1 nM thrombin or 20 nM APC, 37°C.
Assay [10] shares this target. Briefly: FRET or BRET; HEK293 parental cells expressing PAR1-YFP (WT or mutant), Rluc-βarr2 and EPCR(-Halo) (thrombin also without EPCR); 5 μM coelenterazine H, then 1 nM thrombin or 20 nM APC; BRET (530/480 nm) over time at 37°C, percent over basal.
The target is the same in assay [11]. Description: condition: only GRK2,3,5,6 KO cells with catalytically inactive GRK5 K215R; FRET or BRET; HEK293 GRK2,3,5,6 KO cells expressing catalytically inactive GRK5 K215R, with PAR1-YFP, EPCR-Halo and Rluc-βarr2; 1 nM thrombin or 20 nM APC, 37°C.
Assay [12] addresses T1, thrombin-activated protease-activated receptor-1 fused to yellow fluorescent protein (PAR1-YFP WT after cleavage at R41) (human). The assay is described as above.

These are yes or no findings as the source states them, for the method shown. Binding seen in cells or lysates may run through a third protein. Some entries that bind do so weakly or less than the wild type. Tags and fused reporters may be left off the sequences shown.

For “Nanoluciferase (Nluc)-tagged β-arrestin-1 WT (from UniProt P49407 1-418)”, in assay [1], the binding result is given as “binds”.
As for “Nanoluciferase (Nluc)-tagged β-arrestin-2 WT (from UniProt P32121 1-409)”, in assay [2], the binding result was “binds”.
As for “Renilla luciferase (Rluc)-tagged β-arrestin-2 (from UniProt P32121 1-409)”, the binding entry is recorded as “no binding” in [3]; “no binding (condition: cells lacking EPCR expression)” in assay [4]; “no binding (condition: GRK2,3,5,6 KO cells without GRK5)” in [5]; “no binding” in assay [6]; “no binding (condition: with 10 μM vorapaxar)” in assay [7]; “no binding (condition: with 10 μM vorapaxar)” in assay [8]. Besides, the binding entry is “binds” in assay [9], “binds” in assay [10], “no binding” in [11] and “no binding” in assay [12].
